These are yes or no findings as the source states them, for the method shown.

The chains behind the UniProt entries cited, without tags or fusion partners. Where a name states a change or a piece, a line headed by the entry shows the natural chain unless it says otherwise. A line that says so, or that is headed by a name, gives the form on record, which may keep a tag or linker.
CR1 20–23, complement receptor-type 1 CCPs 20–23 (P17927, form named): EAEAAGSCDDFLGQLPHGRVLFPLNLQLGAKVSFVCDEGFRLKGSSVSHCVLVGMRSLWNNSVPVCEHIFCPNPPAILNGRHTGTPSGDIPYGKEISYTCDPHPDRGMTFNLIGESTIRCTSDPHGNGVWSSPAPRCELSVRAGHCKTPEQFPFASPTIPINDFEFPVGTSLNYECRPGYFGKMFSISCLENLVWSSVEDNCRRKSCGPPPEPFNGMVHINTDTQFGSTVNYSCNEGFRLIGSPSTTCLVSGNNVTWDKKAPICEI

This assay deals with CR1 20–23, complement receptor-type 1 CCPs 20–23 (human) (UniProt P17927). The experiment in a line: SAXS; CR1 20–23 at 1.9 and 3.3 mg/ml, 10°C, 50 mM potassium phosphate pH 7.4; excluded volume from the DAMMIF ab initio model; both purified.

Turning to “CR1 20–23, complement receptor-type 1 CCPs 20–23 (from UniProt P17927 1257-1516) (domain or fragment)”, the binding entry is “no binding (tested: 1.9 and 3.3 mg.ml^−1)”.

(Values after publication PMC3323580.)
